Assay: Chemoselectivity of reaction with N-Ac-Cys versus N-Ac-Lys and N-Ac-Tyr (LC-MS)
Type: physicochemical

Row | SMILES | chemoselectivity for the thiol group of cysteine (equimolar N-acetyl-L-lysine, N-acetyl-L-tyrosine, N-acetyl-L-cysteine, PBS buffer/DMSO, 1 hour) | chemoselectivity for conjugate with N-Ac-Cys (equimolar N-Ac-Cys and N-Ac-Lys, or N-Ac-Cys, N-Ac-Tyr and N-Ac-Lys (Scheme 3))
1 | C#CCOCCOCCOCCNC(=O)c1cc(C(=O)/C=C/C(N)=O)cc(C(=O)OC)c1 [AMA-9c] | complete chemoselectivity | –
2 | C#CCOCCOCCOCCNC(=O)c1cc(C(=O)/C=C/C(N)=O)cc(C(=O)OC)c1 [compound 6] | – | over 95%

— patent US20230039858A1, “COMPOSITIONS AND METHODS RELATED TO MOLECULAR CONJUGATION” (IntoCell, Inc., priority 2019, published 2023)
